Measurements reported in PubChem BioAssay AID504764 (Drosophila RNAi Screening Center, 2011)

- Test: 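Genome-wide screen for regulators of Notch-driven gene expression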 (primary screen)
- System: Drosophila Kc167 cells
- Reagent: long dsRNA against Drosophila genes
- Duration: about 5 days (4 days dsRNA, then 24 h after transfection)
- Conditions: transfection of constitutively active membrane-tethered Notch lacking the extracellular domain, read 24 h later
- Read-out: 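Firefly luciferase from an E(spl)m3 reporter with active Notch, plus control-promoter and uninduced reporter wells for normalisation; unnormalised counts, duplicate wells a and b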
- Reading the numbers: induced reporter light, run 1, well a and induced reporter light, run 1, well b: higher = more light from the Notch target reporter with active Notch; control promoter light, run 1, well a and control promoter light, run 1, well b: higher = more light from the viral control promoter (cell number, transfection, viability); uninduced reporter light, run 1, well a: higher = more light from the Notch target reporter without active Notch
- Rule for the call: 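Wells with low control signal or poorly matching duplicates excluded; duplicates averaged; per source plate, z beyond ±2 for induced/control log2 ratio or beyond ±1.8 for induced/uninduced marks a hit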
- Meaning of the calls: active = modifier hit (raised or lowered Notch signal); inactive = not a hit
In all, the deposit lists about 22,000 reagents; shown is an unselected part of those that have a named target and a result. In the full data, 403 (1.9%) are marked active. 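Unnormalised raw counts per well; ratio z-scores behind the hit calls and whether each hit raises or lowers signal are not deposited.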 Entries without a mark were called inactive. The numbers tell different reagents against one gene apart. Not stated in the record: the amount of reagent.

Depletion of NPF resulted in: induced reporter light, run 1, well a = 2.36e5; induced reporter light, run 1, well b = 2.50e5; control promoter light, run 1, well a = 2.44e5; control promoter light, run 1, well b = 2.56e5; uninduced reporter light, run 1, well a = 19020.
After knock-down of neb, the screen gave induced reporter light, run 1, well a = 3.25e5; induced reporter light, run 1, well b = 3.32e5; control promoter light, run 1, well a = 3.54e5; control promoter light, run 1, well b = 3.04e5; uninduced reporter light, run 1, well a = 21950.
After knock-down of VhaAC45 the results were induced reporter light, run 1, well a = 1.17e5 (active); induced reporter light, run 1, well b = 1.37e5; control promoter light, run 1, well a = 1.64e5; control promoter light, run 1, well b = 1.87e5; uninduced reporter light, run 1, well a = 10270.
For PGRP-SC2 the deposit lists induced reporter light, run 1, well a = 2.07e5; induced reporter light, run 1, well b = 1.74e5; control promoter light, run 1, well a = 1.94e5; control promoter light, run 1, well b = 2.53e5; uninduced reporter light, run 1, well a = 17590.
Knock-down of Sp1 #1 came out at: induced reporter light, run 1, well a = 75935; induced reporter light, run 1, well b = 69545; control promoter light, run 1, well a = 91530; control promoter light, run 1, well b = 77095; uninduced reporter light, run 1, well a = 6015.
Knock-down of Sp1 #2 gave: induced reporter light, run 1, well a = 1.62e5; induced reporter light, run 1, well b = 1.30e5; control promoter light, run 1, well a = 3.09e5; control promoter light, run 1, well b = 2.81e5; uninduced reporter light, run 1, well a = 9790.
After knock-down of Rab21 the results were induced reporter light, run 1, well a = 1.37e5; induced reporter light, run 1, well b = 1.44e5; control promoter light, run 1, well a = 1.48e5; control promoter light, run 1, well b = 1.93e5; uninduced reporter light, run 1, well a = 11975.

Called active (from the list above):
VhaAC45: induced reporter light, run 1, well a = 1.17e5 (active); induced reporter light, run 1, well b = 1.37e5; control promoter light, run 1, well a = 1.64e5; control promoter light, run 1, well b = 1.87e5; uninduced reporter light, run 1, well a = 10270

The listing continues.
Depletion of Ptpa came out at: induced reporter light, run 1, well a = 1.76e5; induced reporter light, run 1, well b = 1.82e5; control promoter light, run 1, well a = 1.79e5; control promoter light, run 1, well b = 1.63e5; uninduced reporter light, run 1, well a = 14200.
Against CG31997 the deposit lists induced reporter light, run 1, well a = 49865; induced reporter light, run 1, well b = 69180; control promoter light, run 1, well a = 1.03e5; control promoter light, run 1, well b = 69060; uninduced reporter light, run 1, well a = 6545.
Knock-down of RpS7 resulted in: induced reporter light, run 1, well a = 11090; induced reporter light, run 1, well b = 8128; control promoter light, run 1, well a = 13080; control promoter light, run 1, well b = 14125; uninduced reporter light, run 1, well a = 730.
For Cyp18a1, the entry reads induced reporter light, run 1, well a = 87805; induced reporter light, run 1, well b = 1.09e5; control promoter light, run 1, well a = 1.04e5; control promoter light, run 1, well b = 1.30e5; uninduced reporter light, run 1, well a = 11215.
Against CG43316 #1 the deposit lists induced reporter light, run 1, well a = 85125; induced reporter light, run 1, well b = 89365; control promoter light, run 1, well a = 99400; control promoter light, run 1, well b = 94650; uninduced reporter light, run 1, well a = 9885.
Knock-down of CG43316 #2 came out at: induced reporter light, run 1, well a = 1.04e5; induced reporter light, run 1, well b = 1.03e5; control promoter light, run 1, well a = 1.24e5; control promoter light, run 1, well b = 1.10e5; uninduced reporter light, run 1, well a = 9020.
For CG15375, the values are induced reporter light, run 1, well a = 1.34e5; induced reporter light, run 1, well b = 1.49e5; control promoter light, run 1, well a = 2.48e5; control promoter light, run 1, well b = 2.94e5; uninduced reporter light, run 1, well a = 11540.
Silencing of CG5555 came out at: induced reporter light, run 1, well a = 2.32e5; induced reporter light, run 1, well b = 2.44e5; control promoter light, run 1, well a = 3.03e5; control promoter light, run 1, well b = 3.51e5; uninduced reporter light, run 1, well a = 17595.
After knock-down of stau the results were induced reporter light, run 1, well a = 94460; induced reporter light, run 1, well b = 1.16e5; control promoter light, run 1, well a = 1.83e5; control promoter light, run 1, well b = 1.83e5; uninduced reporter light, run 1, well a = 8230.
Knock-down of mthl15 resulted in: induced reporter light, run 1, well a = 1.17e5; induced reporter light, run 1, well b = 84180; control promoter light, run 1, well a = 97790; control promoter light, run 1, well b = 79285; uninduced reporter light, run 1, well a = 5750.
Ekar scored induced reporter light, run 1, well a = 1.45e5; induced reporter light, run 1, well b = 1.45e5; control promoter light, run 1, well a = 2.64e5; control promoter light, run 1, well b = 2.81e5; uninduced reporter light, run 1, well a = 10835.
